A short description of this series: Pharmacokinetic (PK) test in mice. The note with it: mouse, plasma; male C57BL/6 mice; tail vein 2 mg/kg, oral 15 mg/kg. Type of series: in vivo, mice (C57BL/6).

In general, half-life refers to the time in which the quantity being followed falls by half. As for `N#CC1(C(=O)N2CC3(CCC(c4cccc5nc(NC(=O)C6CC6)nn45)CC3)C2)CC1` [Compound 1-11], the half-life was 2.99 h.

The values are drawn from patent US12419873B2, “Use of JAK inhibitors in preparation of drugs for treating JAK kinase-related diseases” (ZHUHAI UNITED LABORATORIES CO., LTD., priority 2020, dated 2025).
